Assay results as given in US20170175081A1, “Methods of Obtaining Islet Cells” (The University Court of the University of Aberdeen, priority 2014, published 2017).
The amount applied is not stated for every result.

Tested on: islet derived MSCs
Assay: Attachment and Ad-KLF4 redifferentiation on laminin isoform coatings
Type: cell-based, human
Conditions: glass coverslips pre-coated with laminin isoform

Substance	time to full attachment of freshly-plated islet derived MSCs
LN511: laminin isoform obtained from Biolamina AB	8 h
LN521: laminin isoform obtained from Biolamina AB	8 h
